No constants are given. Whether binding was seen depends on the method and setting.
Target: recombinant Drosophila peptidoglycan recognition protein SA (rPGRP-SA) (Drosophila) (UniProt Q9VYX7)
Experiment: SEC; gel-filtration chromatography; Superdex 75 pre-equilibrated in 20 mM Tris-HCl (pH 7.8) and 300 mM NaCl; both purified

binding: no binding
B1: recombinant Drosophila peptidoglycan recognition protein SA (rPGRP-SA) (protein, UniProt Q9VYX7 27-203)
chain: GKSRQRSPANCPTIKLKRQWGGKPSLGLHYQVRPIRYVVIHHTVTGECSGLLKCAEILQNMQAYHQNELDFNDISYNFLIGNDGIVYEGTGWGLRGAHTYGYNAIGTGIAFIGNFVDKLPSDAALQAAKDLLACGVQQGELSEDYALIAGSQVISTQSPGLTLYNEIQEWPHWLSNP

— paper PMC515366, “A Drosophila Pattern Recognition Receptor Contains a Peptidoglycan Docking Groove and Unusual L,D-Carboxypeptidase Activity” (PLoS Biology, 2004)
